This assay addresses She2p-Myc (wild type) (Saccharomyces cerevisiae), P36068. The experiment in a line: co-IP; anti-Myc antibody (9E11) on magnetic Protein G beads precipitates She2p-Myc from yeast (she2Δ background); Western blot against HA-tagged She3p; two independent blots quantified. As to conditions: remark: other sources report otherwise. In general terms: A western blot detects proteins with antibodies after separation by electrophoresis.

These are yes or no findings as the source states them, for the method shown. In cells and extracts the contact can be indirect. Some results given as binding are weak or reduced against the parent protein; the word gives no strength. Where a sequence is shown, tags or fusion partners need not be part of it.

B1: HA-tagged She3p, P38272 1-425 (protein)
chain: MSDQDNTQTSSSKLAPHHNIFMANLESSPTKDRNTSSQNASSSRVIESLHDQIDMLTKTNLQLTTQSQNLLSKLELAQSKESKLLENLNLLKNENENLNSIFERKNKKLKELEKDYSELSNRYNEQKEKMDQLSKLAKNSSAIEQSCSEKLQNMEVNYNSLLESQNLYRDHYSDEISKLNEKIGLLELELSNQNLNYGSDTSSNSDIELNLNKFNDSVKDLKSLETEKDSKLSKIITHSLDELNLQSWLNLYQTNENLISTFAEKMDLKDVLKRNDEKISNKGAVVQTLKKNVQTQVESNNADALSSNNAQDMLPIKMVKLRKTPNTNDSSSNGNSSNNKRRSFYTASPLLSSGSIPKSASPVLPGVKRTASVRKPSSSSSKTNVTHNNDPSTSPTISVPPGVTRTVSSTHKKKGNSMVVHGAQS
On to B1, for which the binding result is recorded as “binds”.
